{
  "source": "patent US20250025414A1",
  "about": "“READY-DELIVERY ORAL DOSAGE FORM FOR LABORATORY ANIMALS” (Duquesne University of the Holy Spirit, priority 2023, published 2025)",
  "origin": "cited, not measured here",
  "tested_on": "humans or household pets",
  "details": "cited from earlier work",
  "data": [
    {"smiles": "CC[N+](CC)(CC(=O)Nc1c(C)cccc1C)Cc1ccccc1", "note": "[denatonium benzoate]", "values": [
      {"measurement": "concentration at which a liquid containing it is considered undrinkable", "setting": "by humans or household pets", "value": "30-100 ppm"},
      {"measurement": "concentration at which perceived as bitter", "setting": "used as aversive additive", "value": "1-10 ppm"}
    ]}
  ]
}
